Measurements reported in publication PMC2860244.
These are yes or no findings as the source states them, for the method shown. In cells and extracts the contact can be indirect. These calls come from enrichment with a bait or labelling near it, and not all partners need be listed. A no says only that the protein was not detected with the bait.

B1: zinc finger protein 217, Q3U0X6 1-1041 (protein)
chain: MPTQSLLVYMDGPEVLSSSLGSQMEVDDAVPIKGPVAVPFRAAQEKSMAVAEGHMPLDCMFCSQVFSQAEDLSQHVLLQHRPTLCEPAVLRVEAEYLSPLDKALEPTEPALEKSGEDPEELSCDVCGQTFPVAFDVESHMKKHKDSFTYGCSMCGRRFKEPWFLKNHMRTHNGKSGTRSKLQQGMESPVTINEVVQPHAPGSISTPYKICMVCGFLFPNKQSLIEHSKVHAKETVPSASNVAPDDHREEPTSPREELLQFLNLRPRSTAGSTVKPMTCIPQLDPFTTYQAWQLATKGKVAVAQEEVKESGQEGSTDNDDSCSEKEELGEIWVGGKAEGSGKSKTSKSSCPGLSQDKEKPRHANSEVPSGDSDPKLSSSKEKPTHCSECSKAFRTYHQLVLHSRVHRKDRRTDALSPTMAVDARQPGTCSPDLSTTLEDSGAGDREGGSEDGSEDGLPDGLHLDKNDDGGKAKPLPSSRECSYCGKFFRSNYYLNIHLRTHTGEKPYKCEFCEYAAAQKTSLRYHLERHHKDKQPVDAAAESKSEGRSQEPQDALLTAADSAQTKNLKRFLDGAKDVKGSPPAKQLKEMPSVFQSVLSPAHSNDTQDFHKHAADSAEKARKSPAPTYLDMQRKKAGEPQASSPVCRLEGVGSLAREAGHREKMDQDADYRHKPGADCQDRPLNLSLGPLHACPAISLSKCLIPSIACPFCTFKTFYPEVLMMHQRLEHRYNPDPHKNGSSKSVLRNRRTGCPPALLGKDVPPLSGLHKPKAKTAFSPHSKSLHSEKARQGASGPSKAPQTSGPDNSTLAPSNLKSHRSQPNAGGTSATRQQQSELFPKGGVPAAMDKVKRPEPKLKSLPASPSQSPLSSNNSNGSVEYPVKVDGPWAQQGRDYYCHRNSGSAAAEYSEPHPKRLKSSAVSLDTEHAGTNGRRGFELPKYHVVRSITSLLPPECVRPPPVLPHKARFLSPGEVESPSVLAVQKPYSASGPLYTCGPVGHAGGSPALEGKRPVSHQHLSNSMLQKRSYENFIGNTHYRPNDKKP
B2: beta-catenin, Q02248 1-781 (protein)
chain: MATQADLMELDMAMEPDRKAAVSHWQQQSYLDSGIHSGATTTAPSLSGKGNPEEEDVDTSQVLYEWEQGFSQSFTQEQVADIDGQYAMTRAQRVRAAMFPETLDEGMQIPSTQFDAAHPTNVQRLAEPSQMLKHAVVNLINYQDDAELATRAIPELTKLLNDEDQVVVNKAAVMVHQLSKKEASRHAIMRSPQMVSAIVRTMQNTNDVETARCTAGTLHNLSHHREGLLAIFKSGGIPALVKMLGSPVDSVLFYAITTLHNLLLHQEGAKMAVRLAGGLQKMVALLNKTNVKFLAITTDCLQILAYGNQESKLIILASGGPQALVNIMRTYTYEKLLWTTSRVLKVLSVCSSNKPAIVEAGGMQALGLHLTDPSQRLVQNCLWTLRNLSDAATKQEGMEGLLGTLVQLLGSDDINVVTCAAGILSNLTCNNYKNKMMVCQVGGIEALVRTVLRAGDREDITEPAICALRHLTSRHQEAEMAQNAVRLHYGLPVVVKLLHPPSHWPLIKATVGLIRNLALCPANHAPLREQGAIPRLVQLLVRAHQDTQRRTSMGGTQQQFVEGVRMEEIVEGCTGALHILARDVHNRIVIRGLNTIPLFVQLLYSPIENIQRVAAGVLCELAQDKEAAEAIEAEGATAPLTELLHSRNEGVATYAAAVLFRMSEDKPQDYKKRLSVELTSSLFRTEPMAWNETADLGLDIGAQGEALGYRQDDPSYRSFHSGGYGQDALGMDPMMEHEMGGHHPGADYPVDGLPDLGHAQDLMDGLPPGDSNQLAWFDTDL

Target: Oct4-FTAP fusion protein (mouse), P20263
Assay: affinity purification with mass spectrometry; one-step purification on anti-FLAG M2 Dynal beads from whole-cell extracts of Oct4-FTAP ESCs against unmodified control cells (AB2.2); 150 mM NaCl, 0.1% NP-40, 90 min, 4°C; elution with AcTEV protease; three independent purifications; LC-MS/MS
Conditions: remark: other sources report otherwise

Row | binding | Binder
1 | binds | B1
2 | no binding | B2
